Results as given in article PMC4118026.
These are yes or no findings as the source states them, for the method shown. In cells and extracts the contact can be indirect. Some binding calls cover weakened binding; strength is not graded here.

Chains of the proteins cited; added tags and fusions are not shown.
UniProt Q8R4B8: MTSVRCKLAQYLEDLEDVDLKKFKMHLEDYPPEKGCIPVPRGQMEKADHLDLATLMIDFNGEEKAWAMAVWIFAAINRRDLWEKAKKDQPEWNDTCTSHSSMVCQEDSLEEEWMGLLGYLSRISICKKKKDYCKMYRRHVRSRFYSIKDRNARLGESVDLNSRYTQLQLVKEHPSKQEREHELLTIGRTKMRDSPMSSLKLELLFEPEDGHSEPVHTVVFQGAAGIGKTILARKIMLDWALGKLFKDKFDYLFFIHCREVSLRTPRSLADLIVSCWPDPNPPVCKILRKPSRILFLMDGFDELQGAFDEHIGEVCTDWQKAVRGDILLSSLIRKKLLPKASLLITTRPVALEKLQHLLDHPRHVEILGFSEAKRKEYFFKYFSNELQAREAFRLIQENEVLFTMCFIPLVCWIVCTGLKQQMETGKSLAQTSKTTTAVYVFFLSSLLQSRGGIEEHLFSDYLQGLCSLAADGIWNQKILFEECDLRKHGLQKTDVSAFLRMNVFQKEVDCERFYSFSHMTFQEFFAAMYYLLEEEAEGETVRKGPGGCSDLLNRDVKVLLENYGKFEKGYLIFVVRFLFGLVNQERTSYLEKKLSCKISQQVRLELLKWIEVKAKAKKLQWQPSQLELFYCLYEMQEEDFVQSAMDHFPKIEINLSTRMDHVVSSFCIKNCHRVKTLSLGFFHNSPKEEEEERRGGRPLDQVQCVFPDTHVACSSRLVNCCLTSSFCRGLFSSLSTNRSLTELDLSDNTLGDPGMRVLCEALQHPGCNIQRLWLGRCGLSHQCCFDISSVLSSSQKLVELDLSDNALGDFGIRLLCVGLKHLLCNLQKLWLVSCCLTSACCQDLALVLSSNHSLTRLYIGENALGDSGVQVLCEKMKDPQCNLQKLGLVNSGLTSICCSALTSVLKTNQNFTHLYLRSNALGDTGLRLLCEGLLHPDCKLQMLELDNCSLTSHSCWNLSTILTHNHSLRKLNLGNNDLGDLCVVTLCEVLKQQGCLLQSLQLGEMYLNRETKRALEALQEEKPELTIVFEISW

Target: NLRP3 (mouse (endogenous in primary cortical astrocytes)) (UniProt Q8R4B8)
Test: co-IP; pre-cleared lysates of primary astrocytes, untreated or treated 24 h with LPS, ATP or ethanol (10, 50 mM); mouse anti-NLRP3 antibody covalently immobilised on agarose (Pierce Co-IP kit); eluate blotted with anti-caspase-1; mouse IgG as negative control

B1: p45 caspase-1 precursor (enzyme, UniProt P29452 1-402)
chain: MADKILRAKRKQFINSVSIGTINGLLDELLEKRVLNQEEMDKIKLANITAMDKARDLCDHVSKKGPQASQIFITYICNEDCYLAGILELQSAPSAETFVATEDSKGGHPSSSETKEEQNKEDGTFPGLTGTLKFCPLEKAQKLWKENPSEIYPIMNTTTRTRLALIICNTEFQHLSPRVGAQVDLREMKLLLEDLGYTVKVKENLTALEMVKEVKEFAACPEHKTSDSTFLVFMSHGIQEGICGTTYSNEVSDILKVDTIFQMMNTLKCPSLKDKPKVIIIQACRGEKQGVVLLKDSVRDSEEDFLTDAIFEDDGIKKAHIEKDFIAFCSSTPDNVSWRHPVRGSLFIESLIKHMKEYAWSCDLEDIFRKVRFSFEQPEFRLQMPTADRVTLTKRFYLFPGH
- binding: binds
